Reference: PubChem BioAssay AID504834 (National Center for Advancing Translational Sciences (NCATS), 2011)
Screen size: about 320,000 compounds; about 22,000 (6.9%) were called active. The shares of active, inactive and inconclusive entries below differ from those in the screen. Calls follow the shape of the dose curve; as a rule, active = well fitted inhibition curve with a large enough effect; inconclusive = small, poorly fitted or top-dose-only effect, or another doubt; inactive = no such curve, though single readings can be large or run the other way. Potencies beside an inconclusive call are fits to weak or partial responses and may not hold up.

assay: Primary qHTS for delayed death inhibitors of the malarial parasite plastid, 96 hour incubation; settings: P. falciparum luciferase reporter growth; series mostly up to 28.7 µM; activity change, negative = inhibition: at the top concentration
Method in brief: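 Readout is luminescence from an integrated firefly luciferase in P. falciparum. Red cells, 2% hematocrit and 0.05% parasitemia final, were cultured with compound through two parasite generations (96 hours) at 37 C, 5% CO2.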
% is scaled to controls: 0 for no effect and ±100 for the full control effect; potency is read from the fitted curve at half-maximal effect.

Row | SMILES | Potency | activity change, negative = inhibition
1 | CN1CCN(c2ccc(S(=O)(=O)N3CCCCC3)cc2NC(=O)CSCc2ccccc2)CC1 | inconclusive: 8.28 µM [inhibitor, partial curve, poor fit] | 
2 | O=C(Cn1cnc2c(nnn2-c2ccccc2)c1=O)N1CCCc2ccccc21 | inconclusive: 13.1 µM [inhibitor, single point] | 
3 | COc1cc2c(cc1OC)-c1cc(Nc3ccccc3Br)nc(=O)n1CC2 | inconclusive: 5.86 µM [inhibitor, partial curve, poor fit] | 
4 | COc1ccc(CCNC(=O)CNC(=O)Cn2cnc3sc(C)c(C)c3c2=O)cc1OC | inconclusive: 2.62 µM [inhibitor, full curve, poor fit] | 
5 | COC(=O)c1ccc(CSc2ccc3nnc(-c4ccccn4)n3n2)o1 | active: 10.4 µM | 
6 | COC(=O)C1(CC2CC(c3ccncc3)=NO2)CCN(C(=O)OC(C)(C)C)CC1 (centres undefined) | inconclusive: 16.5 µM [inhibitor, single point] | 
7 | COCCn1c(SCC(=O)c2ccccc2)nc2ccccc2c1=O |  | inactive: -18.3%
8 | CC(C)CN(CCNC(=O)c1cn(C)c2ccc(S(=O)(=O)N3CCCC3)cc2c1=O)CC(C)C | active: 9.28 µM | 
9 | Cc1cccc2c1-c1sc(C(=O)N3CCc4ccccc4C3)cc1CO2 | inconclusive: 11.7 µM [inhibitor, single point] | 
10 | CC(=O)Nc1ccc(S(=O)(=O)Nc2cc(S(=O)(=O)N3CCCCC3)ccc2O)cc1 |  | inactive: 2.79%
11 | O=C(Cn1cc2c(n1)CCCC2)NC1CCCCCC1 | inconclusive: 0.586 µM [inhibitor, full curve] | 
12 | Cc1ccc(-n2c(SCC(=O)NCc3ccc4c(c3)OCO4)nnc2-c2cccnc2)c(C)c1 | active: 9.28 µM | 
13 | O=C(O)CCc1ccc(S(=O)(=O)Nc2ccccc2C(=O)NCCc2ccccc2)cc1 |  | inactive: 169%
14 | CCOc1cc(Cl)c(CNCCCN2CCOCC2)cc1OC | inconclusive: 14.7 µM [inhibitor, single point] | 
15 | CCCCCOc1ccc(Cl)cc1CN1CCOCC1 | inconclusive: 4.15 µM [inhibitor, partial curve, poor fit] | 
16 | CCOC1=NN(c2ccccc2)C(=O)/C1=C\N(C)C |  | inactive: -14.1%
17 | O=C(Nc1ccccc1)c1cccn(Cc2ccccc2)c1=O |  | inactive: 357%
18 | CCOC(=O)N1CCN(C(=O)CCn2nc(-c3ccccc3)ccc2=O)CC1 |  | inactive: -3.59%
19 | O=C(COC(=O)CCCN1C(=O)c2cccc3cccc(c23)C1=O)NC1CCS(=O)(=O)C1 (centres undefined) |  | inactive: 30.8%
20 | COc1ccc2ccc(O)c(CN3CCN(S(=O)(=O)c4cc([N+](=O)[O-])ccc4C)CC3)c2c1 | inconclusive: 11.7 µM [inhibitor, partial curve, poor fit] | 
21 | CCOC(=O)N1CCN(c2nc3ccc(C(=O)c4ccccc4)cc3n3cnnc23)CC1 | inconclusive: 5.22 µM [inhibitor, partial curve] | 
22 | COc1ccc(S(=O)(=O)N(CCc2ccccc2)CC(N)=O)cc1 | inconclusive: 2.62 µM [inhibitor, full curve, poor fit] | 

Sorted by number of heavy atoms (smallest number first): some entries from above.
Row | SMILES | Potency | activity change, negative = inhibition
16 | CCOC1=NN(c2ccccc2)C(=O)/C1=C\N(C)C |  | inactive: -14.1%
15 | CCCCCOc1ccc(Cl)cc1CN1CCOCC1 | inconclusive: 4.15 µM [inhibitor, partial curve, poor fit] | 
17 | O=C(Nc1ccccc1)c1cccn(Cc2ccccc2)c1=O |  | inactive: 357%
22 | COc1ccc(S(=O)(=O)N(CCc2ccccc2)CC(N)=O)cc1 | inconclusive: 2.62 µM [inhibitor, full curve, poor fit] | 
7 | COCCn1c(SCC(=O)c2ccccc2)nc2ccccc2c1=O |  | inactive: -18.3%
5 | COC(=O)c1ccc(CSc2ccc3nnc(-c4ccccn4)n3n2)o1 | active: 10.4 µM | 
3 | COc1cc2c(cc1OC)-c1cc(Nc3ccccc3Br)nc(=O)n1CC2 | inconclusive: 5.86 µM [inhibitor, partial curve, poor fit] | 
6 | COC(=O)C1(CC2CC(c3ccncc3)=NO2)CCN(C(=O)OC(C)(C)C)CC1 (centres undefined) | inconclusive: 16.5 µM [inhibitor, single point] | 
10 | CC(=O)Nc1ccc(S(=O)(=O)Nc2cc(S(=O)(=O)N3CCCCC3)ccc2O)cc1 |  | inactive: 2.79%
19 | O=C(COC(=O)CCCN1C(=O)c2cccc3cccc(c23)C1=O)NC1CCS(=O)(=O)C1 (centres undefined) |  | inactive: 30.8%
12 | Cc1ccc(-n2c(SCC(=O)NCc3ccc4c(c3)OCO4)nnc2-c2cccnc2)c(C)c1 | active: 9.28 µM | 

Next part.

Row | SMILES | Potency | activity change, negative = inhibition
23 | Cc1nc2c3ccccc3n(Cc3ccccc3F)c2s1 | inconclusive: 14.7 µM [inhibitor, partial curve, poor fit] | 
24 | COc1ccc(COC(=O)c2ccc(Br)c(S(=O)(=O)N3CCOCC3)c2)cc1F | inconclusive: 4.65 µM [inhibitor, partial curve, poor fit] | 
25 | CN(C)C(=O)C12CCC(C)(c3nc4ccccc4nc31)C2(C)C (centres undefined) | active: 2.62 µM | 
26 | O=C(N/N=C/c1ccco1)c1ccncc1 |  | inactive: 73.1%
27 | COc1ccccc1NC(c1cccnc1)c1ccc2cccnc2c1O (centres undefined) | inconclusive: 13.1 µM [inhibitor, partial curve, poor fit] | 
28 | COc1ccc(NC(=O)CCOc2ccc(C)cc2)c(OC)c1 |  | inactive: -29%
29 | CCOCCCNS(=O)(=O)c1ccc(NC(=O)N2c3ccccc3Sc3ccccc32)cc1 | active: 11.7 µM | 
30 | COc1ccc(OC)c(/C=C/C(=O)Nc2cccc(S(=O)(=O)N3CCCC3)c2)c1 | inconclusive: 18.5 µM [inhibitor, single point] | 
31 | Nc1cc(=O)nc(SCC(=O)Nc2ccccc2Cl)n1-c1ccccc1 |  | inactive: 34.3%
32 | CN(CCOc1ccccc1)C(=O)CCc1nc2sc3c(c2c(=O)[nH]1)CCCC3 | inconclusive: 11.7 µM [inhibitor, single point] | 
33 | CN1CCN(C(=O)c2cc(Cl)cc(Cl)c2)CC1 | inconclusive: 2.94 µM [inhibitor, full curve, poor fit] | 
34 | CN(C(=O)c1ccccc1Cl)c1ccccc1C(=O)NCc1ccccc1 |  | inactive: 13.1%
35 | CN(C)NC(=O)c1ccsc1NC(=O)c1ccc(S(=O)(=O)N(C)C)cc1 | inconclusive: 18.5 µM [inhibitor, single point] | 
36 | CCC(=O)N1N=C(c2c(O)n(CCc3ccccc3)c(=O)[nH]c2=O)CC1c1ccc(OC)c(OC)c1 (centres undefined) | inconclusive: 1.65 µM [inhibitor, full curve, poor fit] | 
37 | CC(C)CCn1c(O)c(N=Nc2ccccn2)c2ccccc21 | inconclusive: 18.5 µM [inhibitor, single point] | 
38 | Cn1c(CN2CCOCC2)nnc1SCC(=O)NCCc1ccccc1 | inconclusive: 11.7 µM [inhibitor, single point] | 
39 | Cc1c(Cl)c([N+](=O)[O-])nn1CC(=O)N1CCCc2ccccc21 | inconclusive: 18.5 µM [inhibitor, single point] | 
40 | O=C(CN(Cc1ccc(F)cc1)C(=O)CCC(=O)Nc1ccccn1)NCCc1ccccc1 | inconclusive: 8.28 µM [inhibitor, partial curve, poor fit] | 
41 | Cc1cc(C)n(-c2ccc(C(=O)NC3CCCCC3)cc2)n1 |  | inactive: 28.4%
42 | Cn1c(=O)c(C(=O)COC(=O)c2cc(-c3ccccc3)nc3ccccc23)c(N)n(Cc2ccccc2)c1=O | inconclusive: 0.117 µM [inhibitor, full curve, poor fit] | 
43 | Cc1cc(NC(=O)C2CC(c3ccc(Cl)cc3)=NO2)no1 (centres undefined) |  | inactive: -5.46%
44 | CC1CCCN(C(=O)CCS(=O)(=O)c2cc3c(cc2Cl)NC(=O)CO3)C1 (centres undefined) | inconclusive: 3.7 µM [inhibitor, full curve, poor fit] | 
